Reference: PubChem BioAssay AID1259354 (Paczesny and Yang Labs, IUPUI and University of Michigan, 2018)
The whole screen tested about 78,000 compounds, of which about 1,800 (2.3%) were called active. The inconclusive results got no clear call from the source; some entries with a clear call stand among them for comparison. Cut-off read from the data, not from the text of the source: active = inhibition above about 30%; inconclusive = mostly about 10% to 28%; inactive = weaker than that.

Sequences of proteins named here, by UniProt entry; tags and fusion partners are left off. A change or cut given only in a name is not applied to a line headed by its entry.
UniProt Q01638: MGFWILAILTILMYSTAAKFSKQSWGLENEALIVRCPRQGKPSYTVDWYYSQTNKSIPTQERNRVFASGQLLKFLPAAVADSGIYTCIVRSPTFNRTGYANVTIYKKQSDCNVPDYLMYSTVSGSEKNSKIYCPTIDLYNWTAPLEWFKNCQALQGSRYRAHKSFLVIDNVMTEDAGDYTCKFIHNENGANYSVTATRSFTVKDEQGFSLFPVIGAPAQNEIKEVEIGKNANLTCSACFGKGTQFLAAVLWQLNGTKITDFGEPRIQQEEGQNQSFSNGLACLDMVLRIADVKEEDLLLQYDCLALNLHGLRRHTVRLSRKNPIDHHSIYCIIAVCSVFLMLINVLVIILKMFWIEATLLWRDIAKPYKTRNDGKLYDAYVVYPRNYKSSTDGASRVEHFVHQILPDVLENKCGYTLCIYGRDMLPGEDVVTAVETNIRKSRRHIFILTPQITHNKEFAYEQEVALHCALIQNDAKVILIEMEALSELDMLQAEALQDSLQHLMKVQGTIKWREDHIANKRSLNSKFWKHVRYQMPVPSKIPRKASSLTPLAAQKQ

What follows are molecules tested against Interleukin-1 receptor-like 1 (Homo sapiens) (UniProt Q01638) (assay: blocks human ST2 binding to IL-33, primary screen, biochemical, AlphaLISA (AID 1259354)). Conditions: AlphaLISA ST2-Fc/biotin-IL-33 interaction, 1 h; at 17 µM, hits give high values.
In the case of `CC(C)NC(=O)NCC1CCCN(Cc2ccccc2F)C1` (configuration not stated), the inhibition is reported as “inactive”.
In the case of `Cc1cc(C)nc(NC(=O)c2ccc(Cl)cc2Cl)c1`, the inhibition is reported as “inactive”.
For `O=C(Nc1ccccc1[N+](=O)[O-])c1cc(S(=O)(=O)NCc2cccnc2)ccc1Cl`, the inhibition was inconclusive: 12%.
In the case of `C=CCNC(=O)c1ccc2c(=O)n(CCOC)c(=O)[nH]c2c1`, the inhibition is reported as inconclusive: 21%.
For `Cc1ccc(-n2c(SCC(=O)NCCc3ccccc3)nc3c(c2=O)SCC3)cc1`, the inhibition was active: 31%.
For `Cc1ccc(C(=O)c2oc3ccccc3c2NC(=O)CN2CCN(C)CC2)cc1`, the inhibition was inconclusive: 14%.
`CC(NC(=O)c1ccncc1F)c1nnc2n1CCNCC2` (configuration not stated) was tested, and the inhibition was “inactive”.
For `O=C(CC1(O)C(=O)N(Cc2ccc(Cl)cc2)c2ccccc21)c1ccccc1O` (configuration not stated), the inhibition was “inactive”.
With `Cc1[nH]cnc1CN1CCC(Oc2ccc(C(=O)NC3CCCC3)cc2Cl)CC1` the inhibition was inconclusive: 13%.
With `COc1ccccc1N1CCC(N2CCCC(CO)(Cc3ccccc3)C2)CC1` (configuration not stated) the inhibition was inconclusive: 18%.
In the case of `COc1cc(C=O)cc(OC)c1OCC=C(C)C`, the inhibition is reported as inconclusive: 14%.
For `O=C(Nc1cccc2ccccc12)O[C@@H]1CO[C@H]2[C@@H]1OC[C@@H]2NC(=O)c1ccccc1`, the inhibition was inconclusive: 10%.
`CN(C)c1ccc(-c2nnc([C@H]3CCN(C(=O)Nc4ccc(F)cc4F)C3)o2)cc1` was tested, and the inhibition was inconclusive: 22%.
`Cc1noc(C)c1CC(=O)NCc1cccnc1-n1ccnc1` was tested, and the inhibition was inconclusive: 26%.
In the case of `N#Cc1ccc(N2C(=O)[C@@H]3C4C=CC([C@@H]3C2=O)C42CC2)cc1`, the inhibition is reported as inconclusive: 11%.
In the case of `O=S(=O)(c1ccc(Cl)cc1)N1CCOCC1`, the inhibition is reported as inconclusive: 14%.
`CCCCOc1ccc(C(=O)Nc2ccc(Nc3nc(C)cc(Nc4ccc(C)cc4)n3)cc2)cc1` was tested, and the inhibition was inconclusive: 18%.
With `O=C(c1cnc2ccccn12)N(CC1CCC1)CC1CCCO1` (configuration not stated) the inhibition was “inactive”.
`CC1(C)CC(=O)C2=C(C1)c1c(ccc3ncccc13)NC2c1cccc(Br)c1` (configuration not stated) was tested, and the inhibition was inconclusive: 15%.
`CNC(=O)CCC(=O)N1CC[C@@H](c2ccc3ccccc3c2)[C@H](O)C1` was tested, and the inhibition was “inactive”.
With `CN1CCN(C(=O)Nc2ccc(Cl)cc2)CC1` the inhibition was “inactive”.
For `CCOc1ccc(N2C(=O)CC(NCCN3CCOCC3)C2=O)cc1` (configuration not stated), the inhibition was “inactive”.
In the case of `COc1ccccc1Cn1c(=O)[nH]c2ncccc2c1=O`, the inhibition is reported as inconclusive: 11%.
In the case of `COc1ccc(C2Nc3ccccc3C(=O)N2c2ccc(NC(C)=O)cc2)cc1` (configuration not stated), the inhibition is reported as inconclusive: 13%.
With `COc1ccccc1N1CCN(C(=O)CSc2c3c(nc4ccccc24)CCC3)CC1` the inhibition was inconclusive: 13%.
With `CCCCOc1ccc(NC(=O)c2ccccc2F)cc1` the inhibition was “inactive”.
With `COc1ccc(C2=NN(C(=O)c3ccc(Cl)cc3)C(c3cccc([N+](=O)[O-])c3)C2)cc1` (configuration not stated) the inhibition was inconclusive: 28%.
With `CCC(Sc1nnnn1-c1ccccc1)C(=O)Nc1cccc(C(C)=O)c1` (configuration not stated) the inhibition was “inactive”.
With `COc1cc([N+](=O)[O-])ccc1N=Cc1nc(-c2ccc(Cl)cc2)oc1O` the inhibition was inconclusive: 12%.
In the case of `O=C1CCCC2=C1C(c1ccncc1)n1nc(SCc3ccccc3F)nc1N2` (configuration not stated), the inhibition is reported as inconclusive: 16%.
`CCC(=O)NC(Nc1ccc(S(=O)(=O)Nc2nccs2)cc1)C(Cl)(Cl)Cl` (configuration not stated) was tested, and the inhibition was inconclusive: 11%.
`O=[N+]([O-])c1cc2c(cc1CN1CCN(c3ccc(F)cc3)CC1)OCO2` was tested, and the inhibition was active: 36%.
With `O=C1S/C(=C\c2ccc3c(c2)OCO3)C(=O)N1CNc1cccc(Br)c1` the inhibition was inconclusive: 22%.
With `CC(C)c1nc(CCN(C)C(=O)c2cnn3c2CCCC3)no1` the inhibition was inconclusive: 20%.
For `COc1ccccc1C1Nc2ccccc2NC2=C1C(=O)CCC2` (configuration not stated), the inhibition was inconclusive: 26%.
For `COc1ccc(-c2ccc(/C=C3/C(=O)NN(c4ccc(C)c(Cl)c4)C3=O)o2)c([N+](=O)[O-])c1`, the inhibition was active: 41%.
For `COc1ccccc1OC1CN(C(=O)c2cccc(C#CC(C)(C)O)c2)C1`, the inhibition was inconclusive: 16%.
For `CCN1Cc2nc(OC)c(CNC(=O)c3cnn4c3CCCC4)cc2C1=O`, the inhibition was inconclusive: 16%.
In the case of `CC1CCCCN1C1CN(Cc2cc(F)ccc2O)C1` (configuration not stated), the inhibition is reported as inconclusive: 11%.
`O=C1C2CCCN2C(c2cccc(F)c2)N1c1ccc(Cl)c(Cl)c1` (configuration not stated) was tested, and the inhibition was “inactive”.
For `CN1C(N)=NC(=O)/C1=C/c1ccc(OCc2ccccc2)cc1`, the inhibition was inconclusive: 21%.
With `O=C(Nc1ccc(Cl)c(Cl)c1)N1CCN(Cc2ccc3c(c2)OCO3)CC1` the inhibition was inconclusive: 15%.
`COc1ccc(-c2nnc(NC(=O)c3ccc(S(=O)(=O)N4CCOCC4)cc3)o2)cc1` was tested, and the inhibition was inconclusive: 15%.
`CCOc1ccnc(N2CCN(Cc3ccc4c(c3)OCO4)CC2)n1` was tested, and the inhibition was inconclusive: 12%.
In the case of `CC(C(=O)O)n1cc(-c2ccc(S(C)(=O)=O)cc2)cn1` (configuration not stated), the inhibition is reported as inconclusive: 14%.
In the case of `COc1cc(C)nc(N(Cc2ccccc2)S(=O)(=O)c2ccccc2)n1`, the inhibition is reported as inconclusive: 13%.
With `CC1=C(C(=O)OCCOC(C)C)C(c2ccccc2OCc2ccccc2)NC(=O)N1` (configuration not stated) the inhibition was inconclusive: 10%.
